# In patent US8809627B2, “Plant isoflavone and isoflavanone O-methyltransferase genes” (The Samuel Roberts Noble Foundation, Inc., priority 2006, dated 2014):
# For part of these data: At least one compound was matched to its structure with a doubt left. Some entries share one result that the patent states for a list of compounds. Some compounds share one range, which may span the group rather than tell each member.
# Tests used:
# MtIOMT2 = assay: OMT assays with purified recombinant MtIOMT2 (relative activity; HPLC/MS of products); format: biochemical, Medicago truncatula; settings: 50 μM S-adenosyl methionine, 100 μM acceptor substrate; most converted substrate (daidzein) = 100%
# Source text: Cloning of MtIOMT5 (corresponding to TC 100926, TIGR MtGI v.8) was as described previously (Liu et al., 2005). To obtain a full-length cDNA for MtIOMT2, specific primers designed based upon the M. truncatula genomic sequence were used to amplify the MtIOMT2 coding sequence from M. truncatula root cDNA. The amplified product was cloned into the pGEM®-T easy vector (Promega, Madison Wis.) and sequenced to confirm its identity. MtIOMTs were cloned into the pET28a vector (EMD Biosciences, Inc., San Diego, Calif.) using PCR-based amplification with primers designed to introduce EcoRI and XhoI restriction sites; BamHI and XhoI sites were used for cloning MtIOMT6 due to the presence of an internal EcoRI site in this particular cDNA. […] All MtIOMTs were expressed as translational fusions to an N-terminal His-tag. […] Protein concentration was determined by Bradford assay using BSA as a standard (Bradford, 1976).
# Reactions (200 μl) were performed in 0.1 M potassium phosphate, pH 7.4, 10% (w/v) sucrose, 14 mM β-mercaptoethanol with 10 μM protein, 0.5 mM S-adenosyl-L-methionine, and 80 μM phenolic substrates. […] Samples were analyzed on an Agilent 1100 HPLC, equipped with a quaternary pump (model #G1311A), a degasser (model #G1322A), an autosampler (model #G1313A), and a diode array detector (model #G1315A). […]
# MtIOMT1 = assay: OMT assays with purified recombinant MtIOMT1 (relative activity with 14C-SAM); format: biochemical, Medicago truncatula; settings: for Fold by which relative initial activity with glycitein is higher than with this substrate: MtIOMT1, saturating concentration of glycitein
# Source text: Cloning of MtIOMT5 (corresponding to TC 100926, TIGR MtGI v.8) was as described previously (Liu et al., 2005). To obtain a full-length cDNA for MtIOMT2, specific primers designed based upon the M. truncatula genomic sequence were used to amplify the MtIOMT2 coding sequence from M. truncatula root cDNA. The amplified product was cloned into the pGEM®-T easy vector (Promega, Madison Wis.) and sequenced to confirm its identity. MtIOMTs were cloned into the pET28a vector (EMD Biosciences, Inc., San Diego, Calif.) using PCR-based amplification with primers designed to introduce EcoRI and XhoI restriction sites; BamHI and XhoI sites were used for cloning MtIOMT6 due to the presence of an internal EcoRI site in this particular cDNA. Because the EST for MtIOMT8 was missing a start codon, the primer designed to clone MtIOMT8 into pET28a contained an additional 2-nucleotide insertion to generate an ATG start site. All MtIOMTs were expressed as translational fusions to an N-terminal His-tag. Expression of MtIOMTs in E. coli BL21(DE3) and purification by Ni^2+-NTA chromatography were as described (Zubieta et al., 2001). Proteins were dialyzed against 20 mM Tris pH 8.0, 100 mM NaCl, 10% (v/v) glycerol, and 14 mM β-mercaptoethanol. Protein concentration was determined by Bradford assay using BSA as a standard (Bradford, 1976). […]
# For determination of specific activities, reactions (100 μl) were performed in 0.1 M potassium phosphate, pH 7.4, 10% (w/v) sucrose, 14 mM β-mercaptoethanol with 0.2-μg protein, 50 μM S-adenosyl-L-methionine (0.025 μCi ^14C-SAM per reaction), and 100 μM substrate. Reactions were incubated at 30° C. for 15-25 min and stopped by addition of 4 μl of 1N HCl. Products were extracted into 500 μl of ethyl acetate and 400 μl was used for liquid scintillation counting.
# MsI7OMT = molecular target: T1, MsI7OMT (Medicago sativa, UniProt O24529); settings: reported by He et al., 1998; cited from earlier work
# T1 sequence (O24529 1-352): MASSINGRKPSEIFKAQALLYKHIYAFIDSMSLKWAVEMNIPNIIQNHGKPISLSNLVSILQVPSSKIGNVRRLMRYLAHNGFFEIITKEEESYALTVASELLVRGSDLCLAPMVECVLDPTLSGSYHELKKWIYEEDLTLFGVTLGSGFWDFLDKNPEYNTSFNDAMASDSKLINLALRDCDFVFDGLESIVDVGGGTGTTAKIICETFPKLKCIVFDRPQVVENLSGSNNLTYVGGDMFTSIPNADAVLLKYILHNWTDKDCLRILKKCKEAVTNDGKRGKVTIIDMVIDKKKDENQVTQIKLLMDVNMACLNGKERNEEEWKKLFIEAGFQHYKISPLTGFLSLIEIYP
SMILES,"Relative activity, MtIOMT2 (MtIOMT2)",Fold by which relative initial activity with glycitein is higher than with this substrate (MtIOMT1),Activity of MsI7OMT with 4′-methoxyisoflavones (in words) (MsI7OMT),Fold by which activity is higher than with daidzein (MtIOMT1; MtIOMT1)
"O=c1c(-c2ccc(O)cc2)coc2cc(O)c(O)cc12 [6,7,4′-trihydroxyisoflavone]",35-43.1%,more than 2 fold,–,–
COc1ccc(-c2coc3cc(O)ccc3c2=O)cc1 [formononetin],–,–,little activity,–
"O=c1c(-c2ccc(O)c(O)c2)coc2cc(O)ccc12 [7,3′,4′-trihydroxyisoflavone]",35-43.1%,more than 2 fold,–,–
O=c1c(-c2ccc(O)cc2)coc2cc(O)cc(O)c12 [Genistein],–,–,–,more than 2 fold
